Results as given in US20120023600A1.
Results are given in words; binding and its absence hold for the method and conditions named. Some entries that bind do so weakly or less than the wild type.

Sequences of proteins named here, by UniProt entry; tags and fusion partners are left off. Residues count along the entry.
UniProt O75581, residues 20-1368: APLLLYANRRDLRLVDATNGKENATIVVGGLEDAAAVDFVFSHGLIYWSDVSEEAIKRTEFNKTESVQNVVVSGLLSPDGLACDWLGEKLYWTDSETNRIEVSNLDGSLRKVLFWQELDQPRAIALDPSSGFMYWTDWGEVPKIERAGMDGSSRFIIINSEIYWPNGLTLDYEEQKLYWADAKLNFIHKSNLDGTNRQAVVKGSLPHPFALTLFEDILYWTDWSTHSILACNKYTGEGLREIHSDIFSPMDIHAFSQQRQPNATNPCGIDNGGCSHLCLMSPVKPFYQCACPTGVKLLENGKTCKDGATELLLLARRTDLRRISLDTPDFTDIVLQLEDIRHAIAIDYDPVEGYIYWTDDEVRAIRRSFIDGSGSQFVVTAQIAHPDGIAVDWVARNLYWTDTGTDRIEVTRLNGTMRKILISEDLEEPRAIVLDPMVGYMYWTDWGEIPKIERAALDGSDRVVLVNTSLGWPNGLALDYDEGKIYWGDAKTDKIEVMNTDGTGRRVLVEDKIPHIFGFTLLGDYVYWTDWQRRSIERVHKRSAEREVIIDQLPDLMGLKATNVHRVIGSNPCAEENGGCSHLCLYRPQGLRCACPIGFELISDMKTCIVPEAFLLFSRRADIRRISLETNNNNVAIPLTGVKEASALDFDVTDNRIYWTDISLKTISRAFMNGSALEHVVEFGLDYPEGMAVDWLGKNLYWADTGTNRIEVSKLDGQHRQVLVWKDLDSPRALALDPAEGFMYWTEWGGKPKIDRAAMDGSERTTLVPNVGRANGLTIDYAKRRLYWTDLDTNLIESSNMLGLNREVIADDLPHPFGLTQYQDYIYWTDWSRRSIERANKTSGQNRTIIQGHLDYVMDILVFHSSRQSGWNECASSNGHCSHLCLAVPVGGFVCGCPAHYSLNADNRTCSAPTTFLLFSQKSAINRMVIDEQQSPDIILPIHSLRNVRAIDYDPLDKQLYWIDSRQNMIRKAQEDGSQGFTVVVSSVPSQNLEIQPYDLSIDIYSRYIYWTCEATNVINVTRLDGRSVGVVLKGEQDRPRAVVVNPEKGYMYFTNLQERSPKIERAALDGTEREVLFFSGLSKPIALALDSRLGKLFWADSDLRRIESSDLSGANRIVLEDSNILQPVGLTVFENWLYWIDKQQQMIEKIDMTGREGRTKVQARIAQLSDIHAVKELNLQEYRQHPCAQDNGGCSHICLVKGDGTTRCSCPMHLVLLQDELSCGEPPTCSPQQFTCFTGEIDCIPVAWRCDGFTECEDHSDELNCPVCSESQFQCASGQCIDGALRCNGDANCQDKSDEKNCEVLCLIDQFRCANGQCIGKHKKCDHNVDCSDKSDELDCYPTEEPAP

Target: recombinant LRP6 (R&D Systems Cat#1505-LR) (UniProt O75581)
Test: ELISA; plate coated with 1 µg/ml recombinant LRP6, 500 ng/ml rhDKK1 with hIgG1 control, bound DKK1 detected with anti-DKK1 antibody

- binding: binds
B1: recombinant human DKK1 (ligand)
chain: TLNSVLNSNAIKNLPPPLGGAAGHPGSAVSAAPGILYPGGNKYQTIDNYQPYPCAEDEECGTDEYCASPTRGGDAGVQICLACRKRRKRCMRHAMCCPGNYCKNGICVSSDQNHFRGEIEETITESFGNDHSTLDGYSRRTTLSSKMYHTKGQEGSVCLRSSDCASGLCCARHFWSKICKPVLKEGQVCTKHRRKGSHGLEIFQRCYCGEGLSCRIQKDHHQASNSSRLHTCQRH
